Three molecules from US20220305129A1, “CONJUGATES OF HETEROAROMATIC NITROGEN-COMPRISING COMPOUNDS” (Ascendis Pharma A/S, priority 2019, published 2022) can be followed below.

SMILES strings stand for the structures.

This data set is described as follows: In vitro release kinetics: cleavage rate of the reversible bond in aqueous buffer. Format: physicochemical. The conditions noted are these: pH 7.4, 37° C. The method, then: The cleavage rate of the reversible bond from conjugates 6, 10 and 11 was monitored at pH 7.4 and 37° C. in aqueous buffer (pH 7.4 48 mM sodium phosphate, 20% acetonitrile). The disappearance of the conjugate was determined by LCMS (UV detection) and fitted with curve fitting software to obtain the half-life of the release.
As for `CCOC(c1ccccc1)n1cnc2ccccc21` (stereo not drawn) [Compound 6], the Released product came out at 1H-benzo[d]imidazole. For the molecule `CCOC(c1ccc(CC(=O)O)cc1)n1cnc2ccccc21` (stereo not drawn) [Compound 10], the Released product worked out at 1H-benzo[d]imidazole. For `CCOC(c1ccccc1)n1ncc2ccccc21` (stereo not drawn) [Compound 11] the value was “indazole”.
